Data published in PubChem BioAssay AID2147 (National Center for Advancing Translational Sciences (NCATS), 2009).
Screen size: about 230,000 compounds; about 3,600 (1.6%) were called active. Only results without a clear call are listed here; the source files them as inconclusive. Calls come from the whole dose curve; as a rule, active = well fitted inhibition curve with a large enough effect (not every such curve was filed as active); inconclusive = small, poorly fitted or top-dose-only effect, or another doubt; inactive = no such curve, though single readings can be large or run the other way.

The chains behind the UniProt entries cited, without tags or fusion partners. Residues count along the entry.
UniProt B2RXH2, 1-337 limits assumed: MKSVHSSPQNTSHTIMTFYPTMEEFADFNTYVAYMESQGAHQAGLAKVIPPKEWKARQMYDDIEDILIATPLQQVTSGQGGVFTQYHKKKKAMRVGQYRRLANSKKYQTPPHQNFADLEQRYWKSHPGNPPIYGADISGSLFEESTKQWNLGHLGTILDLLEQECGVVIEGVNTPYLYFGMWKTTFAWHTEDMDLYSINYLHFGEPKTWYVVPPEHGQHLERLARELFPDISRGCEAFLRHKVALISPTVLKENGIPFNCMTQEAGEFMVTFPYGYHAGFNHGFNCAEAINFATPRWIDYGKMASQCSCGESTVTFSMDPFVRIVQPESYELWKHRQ

The molecules below were run against Lysine-specific demethylase 4E (Homo sapiens) (UniProt B2RXH2) (assay: qHTS Assay for Inhibitors of Human Jumonji Domain Containing 2E (JMJD2E)). Details: JMJD2E catalytic domain, FDH-coupled NADH fluorescence (FDH is formaldehyde dehydrogenase).
Note: nearly all actives have a fitted effect of over 50% in size.
Potency is the fitted concentration of half-maximal effect.

SMILES	Potency
N#[O+].[C-]#N.[C-]#N.[C-]#N.[C-]#N.[C-]#N.[Fe+2].[Na+].[Na+]	inconclusive: 25.1 µM
